The source of these data is patent US5128448A (Hoffman-La Roche Inc., priority 1990, dated 1992).

Non-standard residues stand in square brackets, D forms with d. Bta = N[C@@H](Cc1csc2ccccc12)C(=O)O

A short description of data set [1]: general procedure: Boc solid-phase peptide synthesis; BHA, MBHA, PAM or PAL resin; DCC/HOBt. Conditions: for step yield: late stage modification step, monoammonium salt; for isolated yield / crude mass: whole synthesis; for crude mass: scale 0.41 mmol.
Data set [2] in a line: general procedure: Boc solid-phase peptide synthesis; BHA resin; DCC/HOBt. Conditions: whole synthesis, scale 0.41 mmol.

As to “Ac-Tyr(SO3 H)-Met-Gly-(2)Nal-Met-Asp-(2)Nal-NH2”, the step yield in data set [1] came to 41%. Still for that read-out and setting: then “Ac-Tyr(SO3 H)-Met-Gly-(2)Nal-Met-Asp-Cyclooctylalanine-NH2”, with 75%; and “Ac-Tyr(SO3 H)-Met-Gly-(2-Benzo[b]thiophenyl)alanine-Met-Asp-Phe-NH2”, with 55%; and “Ac-Tyr(SO3 H)-Met-Gly-(3-Quinolinyl)alanine-Met-Asp-Phe-NH2”, with 38%.

For “Ac-Tyr(SO3 H)-Met-Gly-(5,6,7,8-Tetrahydro-2-naphthyl)alanine-Met-Asp-Phe-NH2”, the step yield in data set [1] turned out to be 50%.

On to “Ac-Tyr(SO3 H)-Met-Gly-Trp-Met-Asp-(2)Nal-NH2”, for which the step yield in data set [1] is 33%. Consider “Ac-Tyr(SO3 H)-Met-Gly-Trp-Met-Asp-(2-Adamantyl)alanine-NH2”, for which the step yield in data set [1] was determined as 56%. On the same count and under the same terms, next, “Ac-Tyr(SO3 H)-Met-Gly-Trp-Met-Asp-(5,6,7,8-Tetrahydro-2-naphthyl)alanine-NH2”: 50%; “Ac-Tyr(SO3 H)-Met-Gly-Trp-Met-Asp-(D)-(2)Nal-NH2”: 56%; “Ac-Tyr(SO3 H)-Met-Gly-Trp-Met-Asp-(D)-Cyclohexylalanine-NH2”: 65%. Same read-out and setting: next, “Ac-Tyr(SO3 H)-Met-Gly-Trp-Met-Asp-Cyclohexylmethylalanine-NH2”: 33%; “Ac-Tyr(SO3 H)-Met-Gly-Trp-Met-Asp-Cyclooctylalanine-NH2”: 40%; “Ac-Tyr(SO3 H)-Met-Gly-Trp-Met-Asp-Dodecylalanine-NH2”: 45%. Same read-out and setting: next, “Ac-Tyr(SO3 H)-Met-Gly-Trp-Met-Asp-cyclopentylalanine-NH2”: 62%; “Ac-Tyr(SO3 H)-Met-Gly-Trp-Met-Asp-tert-butylalanine-NH2”: 38%; “Ac-Tyr(SO3 H)-Met-Gly-Trp-Met-Asp-trans-[4-(1,1-Dimethylethyl)cyclohexyl]alanine-NH.s ub.2”: 50%. “Ac-Tyr-Met-Gly-(2)Nal-Met-Asp-(2)Nal-NH2” came in with an isolated yield in data set [1] of 15%. In the case of “Ac-Tyr-Met-Gly-(2)Nal-Met-Asp-Cyclohexylalanine-NH2”, the isolated yield in data set [1] worked out at 11%. In data set [1], “Ac-Tyr-Met-Gly-(2)Nal-Met-Asp-Cyclooctylalanine-NH2” showed an isolated yield of 11% and a crude mass of 323.0 mg. In turn, Ac-Tyr-Met-Gly-Qua-Met-Asp-Phe-NH2 displayed an isolated yield in data set [1] of 19%.

Regarding Ac-Tyr-Met-Gly-Tna-Met-Asp-Phe-NH2, in data set [1], the isolated yield was 12% and the crude mass is 460 mg. In the case of Ac-Tyr-Met-Gly-Trp-Met-Asp-(2)Nal-NH2, the isolated yield in data set [1] stood at 28%. Regarding “Ac-Tyr-Met-Gly-Trp-Met-Asp-(2-Adamantyl)alanine-NH2”, in data set [1], the isolated yield is 24% and the crude mass came to 700 mg.

The substance “Ac-Tyr-Met-Gly-Trp-Met-Asp-(D)-(2)Nal-NH2” displayed an isolated yield in data set [1] of 19%. In the case of “Ac-Tyr-Met-Gly-Trp-Met-Asp-(D)-cyclohexylalanine-NH2”, in data set [1], the isolated yield amounted to 12% and the crude mass was found to be 315 mg. For the substance “Ac-Tyr-Met-Gly-Trp-Met-Asp-Cha(4-tBu)-NH2”, the isolated yield in data set [1] amounted to 6%. The crude mass in data set [2] is 306 mg. In data set [1], “Ac-Tyr-Met-Gly-Trp-Met-Asp-Cyclohexylmethylalanine-NH2” had an isolated yield of 14% and a crude mass of 375 mg. Turning to “Ac-Tyr-Met-Gly-Trp-Met-Asp-Cyclooctylalanine-NH2”, the isolated yield in data set [1] was 9%.

Substance “Ac-Tyr-Met-Gly-Trp-Met-Asp-Cyclopentylalanine-NH2” had an isolated yield in data set [1] of 12%.

The substance Ac-Tyr-Met-Gly-Trp-Met-Asp-Doa-NH2 displayed an isolated yield in data set [1] of 2%. For the same substance, the crude mass in data set [2] worked out at 150 mg. The corresponding values for Ac-Tyr-Met-Gly-Trp-Met-Asp-Tna-NH2 are 15% and 540 mg. For the substance “Ac-Tyr-Met-Gly-Trp-Met-Asp-tert-butyl-Ala-NH2”, the isolated yield in data set [1] stood at 16%. Still for that read-out and setting: then Ac-YMG[Bta]MDF-NH2, with 18%.

As to “Desamino-Phe(4-CH2 COOH)-Met-Gly-Trp-Met-Asp-Cyclooctylalanine-NH2”, the isolated yield in data set [1] stood at 6%.

The substance “desamino-Phe(4-CH2 COOH)-Met-Gly-Trp-Met-Asp-cyclohexylalanine-NH2” returned an isolated yield in data set [1] of 11.4%.
